# Laboratory results from PubChem BioAssay AID540276 (National Center for Advancing Translational Sciences (NCATS), 2011).
# “And” between values parts separate entries of the source, which are not always exact repeats. Equal entries are not always repeated. The campaign covered roughly 300,000 compounds. About 5,400 (1.8%) were called active. Inconclusive means that the source gave no clear call. Such entries were picked first, then a sample of the others. The call rests on the fitted dose curve; tested in HEK293 cells. Potencies of inconclusive entries are doubtful fits and often do not repeat.
# Test: qHTS for inhibitors of binding or entry into cells for Marburg Virus
# Conditions: Marburg virus pseudotyped entry inhibition, cell reporter; activity change, negative = inhibition: at 37.8 µM (top of the series) unless noted
# On the % scale 0 is the no-effect control and ±100 the full control effect; potency means the concentration at half of the fitted maximal effect.
Compound,Potency,"activity change, negative = inhibition"
COc1ccc(NC(=O)CSC2=Nc3ccccc3C3=NC(CC(=O)NCc4ccccc4OC)C(=O)N23)cc1Cl (configuration not stated),"inconclusive: 35.5 µM [inhibitor, single point]",–
CC(Sc1n[nH]c(-c2ccccc2F)n1)C(=O)Nc1ccc(S(N)(=O)=O)cc1 (configuration not stated),"inconclusive: 0.794 µM [activator, partial curve, poor fit]",–
CC(=O)Nc1cccc(NC(=O)CSc2ncc(-c3ccc(Cl)cc3)n2Cc2ccco2)c1,"inconclusive: 25.1 µM [inhibitor, single point]",–
Cc1ccc(Sc2ncccc2C(=O)O)cc1,"inconclusive: 3.55 µM [activator, single point]",–
Cc1nc2ncnn2c(C)c1CCC(=O)N1CCOCC1,"inconclusive: 0.58 µM [activator, single point]",–
COc1cc(C(=O)OC2CCOC2=O)cc(Cl)c1OC (configuration not stated),–,inactive: 18.1% [at 46.1 µM]
NC(=O)CSc1nc2ccccc2nc1SCC(N)=O,"inconclusive: 6.31 µM [activator, single point]",–
Cc1ccccc1OCC(O)Cn1c(=N)n(Cc2ccccc2)c2ccccc21 (configuration not stated),"inconclusive: 3.98 µM [inhibitor, partial curve, poor fit]",–
Cc1nn(-c2nc3ccccc3[nH]2)c(=O)c2ccccc12,"inconclusive: 3.98 µM [inhibitor, full curve, poor fit]",–
N#CCC(=O)N/N=C/c1ccc(Sc2nc3ccccc3s2)o1,–,inactive: 21%
Cc1ccc(S(=O)(=O)Cn2nnnc2C(CC(C)C)N2CCN(C(=O)c3ccco3)CC2)cc1 (configuration not stated),"inconclusive: 4.61 µM [activator, single point] and inconclusive: 17.8 µM [activator, single point]",–
CCS(=O)(=O)N1CCN(c2ncnc3sc(C)c(C)c23)CC1,"inconclusive: 7.08 µM [inhibitor, partial curve, poor fit]",–
CCCS(=O)(=O)N1CCCC(C(=O)Oc2ccc(OC)cc2)C1 (configuration not stated),–,inactive: -27.2%
COc1ccc2c(c1)C(=O)N(c1ccccc1)C(=O)C2,"inconclusive: 1.16 µM [inhibitor, full curve]",–
COc1ccc2nc(N3C(=O)CC(Cc4ccc(C)cc4)C3=O)sc2c1 (configuration not stated),"inconclusive: 3.16 µM [inhibitor, partial curve, poor fit]",–
Cn1cccc1/C=N/N1CCN(Cc2cccc3ccccc23)CC1,–,inactive: 0.502%
Cc1cccc(OCC(=O)N2CCC(c3ccccc3)C2)c1 (configuration not stated),"inconclusive: 6.51 µM [activator, single point]",–
COc1cc(C(=O)Oc2cccc(C=O)c2)cc(OC)c1OC,–,inactive: -18.5%
Cc1ccc(C)c(Cn2c3ccccc3c3cnn(CC(=O)NCCC4=CCCCC4)c(=O)c32)c1,"inconclusive: 12.6 µM [activator, single point]",–
Cc1cc(S(=O)(=O)N2CCC3(CC2)OCCN3S(=O)(=O)c2cccs2)ccc1F,"inconclusive: 5.01 µM [inhibitor, partial curve, poor fit]",–
O=C(CN(c1ccc(Br)cc1)S(=O)(=O)c1ccc(Cl)c([N+](=O)[O-])c1)NCCc1ccccc1,"inconclusive: 3.98 µM [inhibitor, full curve, poor fit]",–
COC(=O)c1ccc(NC(=S)NC(=O)c2c(Cl)cnn2C)cc1,"inconclusive: 29.1 µM [inhibitor, single point]",–
COC(=O)C1=C(Nc2ccccc2NC(=O)CCCC(=O)O)CSC1,–,inactive: -9.72% [at 46.1 µM]

Compound,Potency,"activity change, negative = inhibition"
COc1ccccc1CNC(=O)c1ccc2c(c1)N(Cc1cccc(C)c1)C(=O)c1ccccc1S2(=O)=O,"inconclusive: 0.562 µM [inhibitor, full curve, poor fit]",–
O=C(CCCOc1ccc(Br)cc1)NNC(=O)c1ccncc1,"inconclusive: 31.6 µM [activator, single point]",–
Cc1ccc(S(=O)(=O)N2CCN(C(=O)COC(=O)/C=C/c3ccccc3F)CC2)c(C)c1,"inconclusive: 22.4 µM [activator, single point]",–
COc1ccc(NC(=O)Cn2nnc3sc4c(c3c2=O)CCC(C)C4)c(OC)c1 (configuration not stated),–,inactive: -20.5% [at 46.1 µM]
Cc1c(NC(=O)N2CCCCCC2)c(=O)n(-c2ccccc2)n1C,–,inactive: 19.9%
COc1ccc2oc(=O)c(C(=O)NCc3ccc4c(c3)OCO4)cc2c1,–,inactive: 27%
Cc1cccc2sc(NNC(=O)c3ccc4c(c3)OCCO4)nc12,–,inactive: -2.55%
Fc1ccc2nc(Nc3nc4c(F)cc(F)cc4s3)sc2c1,"inconclusive: 35.5 µM [inhibitor, single point]",–
O=C(Cn1nnc2ccccc21)C1CC1,–,inactive: 7.37%
N/C(=N\OC(=O)N1CCOCC1)c1ccc(Cl)cc1,active: 10 µM,–
CC1(C)Oc2ccc(C(=O)N3CCOCC3)cc2N(CC(=O)N2CCOCC2)C1=O,"inconclusive: 2.82 µM [activator, single point]",–
C/C(=N\NC(=O)CSCc1ccccc1Cl)c1cccc(NC(=O)c2ccccc2)c1,"inconclusive: 14.1 µM [inhibitor, single point]",–
CC1CC(C)CN(C(=O)c2cccc(S(=O)(=O)Nc3cc(C(F)(F)F)ccc3Cl)c2)C1 (configuration not stated),"inconclusive: 0.891 µM [inhibitor, full curve, poor fit]",–
CC(C)CNC(=S)N1CCN(C(c2ccccc2)c2ccccc2)CC1,"inconclusive: 11.2 µM [inhibitor, partial curve, poor fit]",–
CCOc1ccc(N(CC(=O)Nc2ccc(C)c(C)c2)S(=O)(=O)c2c(C)[nH]c(=O)[nH]c2=O)cc1,–,inactive: 3.52% [at 46.1 µM]
COC(=O)[C@](O)(c1ccc(NC(=O)c2ccco2)c(OC)c1)C(F)(F)F,–,inactive: 5.64% [at 46.1 µM]
Cc1ccc(Cl)cc1N1CCN(C(=O)Cn2ccc3ccccc3c2=O)CC1,"inconclusive: 12.6 µM [inhibitor, partial curve, poor fit]",–
O=C(CSc1ncc(C(F)(F)F)cc1Cl)N1CCN(S(=O)(=O)c2ccc3ccccc3c2)CC1,"inconclusive: 18.3 µM [inhibitor, single point]",–
O=C(c1cccc(C(F)(F)F)c1)C1CCCN(Cc2ncc[nH]2)C1 (configuration not stated),"inconclusive: 35.5 µM [inhibitor, single point]",–
COc1ccc(-c2ocnc2C(=O)N2CCN(C(c3ccccc3)c3ccccc3)CC2)cc1,"inconclusive: 25.1 µM [inhibitor, single point]",–
NC(=S)Nc1cccc(F)c1,–,inactive: -6.51%
CCN(CC)CCN1C(=O)C(=O)/C(=C(/O)c2ccc(OC)cc2)C1c1ccco1 (configuration not stated),"inconclusive: 35.5 µM [activator, single point]",–
COc1cccc(CN(C)S(=O)(=O)c2ccccc2Br)c1,"inconclusive: 6.28 µM [activator, partial curve, poor fit]",–

Compound,Potency,"activity change, negative = inhibition"
Cc1cc(=O)n2nc(N3CCC(C(=O)NC(C)c4ccccc4)CC3)sc2n1 (configuration not stated),"inconclusive: 25.9 µM [activator, single point]",–
Cn1nc(C(=O)Nc2nc3ccccc3[nH]2)c2ccccc2c1=O,–,inactive: -18.7%
CCC(C(=O)Nc1nc(C)c(C(=O)OC)s1)c1ccccc1 (configuration not stated),–,inactive: -10.6% [at 46.1 µM]
O=c1[nH]n(CC2COC3(CCCCC3)O2)c(=O)c2ccccc12 (configuration not stated),–,inactive: 13.4%
CCCNC(=S)Nc1ccc(Cl)cc1Cl,"inconclusive: 0.112 µM [inhibitor, full curve, poor fit]",–
COc1ccc(Nc2cc(C(=O)NCCc3ccc(C)cc3)c3ccccc3n2)c(OC)c1,"inconclusive: 35.5 µM [activator, single point]",–
O=C(NCc1ccccc1F)C1CCC(=O)N(Cc2ccc(Cl)cc2)C1 (configuration not stated),"inconclusive: 0.631 µM [inhibitor, full curve, poor fit]",–
Cc1cc(Cl)ccc1NC(=S)NCCc1ccc(S(N)(=O)=O)cc1,"inconclusive: 11.2 µM [inhibitor, partial curve, poor fit]",–
COc1cccc(C(=O)COc2cccc(NC(=O)c3ccco3)c2)c1,"inconclusive: 0.794 µM [inhibitor, partial curve, poor fit]",–
CCOC(=O)C(Cc1ccccc1)C(=O)Nc1ccc(NC(=O)C(Cc2ccccc2)C(=O)OCC)cc1 (configuration not stated),–,inactive: 13.9%
Clc1cccc(CNCCc2ccc3c(c2)OCO3)c1,"inconclusive: 35.5 µM [inhibitor, single point]",–
O=C(N/N=C/c1ccc(-c2cccc([N+](=O)[O-])c2)o1)c1ccc([N+](=O)[O-])cc1,"inconclusive: 35.5 µM [inhibitor, single point]",–
COC(=O)c1ccc(COc2ccccc2[N+](=O)[O-])o1,–,inactive: 35.3%
S=C(S)OC1CC2CC1C1CCCC21 (configuration not stated),"inactive and inconclusive: 29.1 µM [activator, single point]",–
Cc1ccc(-c2nnc(Nc3ccc(O)cc3)c3ccccc23)cc1S(=O)(=O)N1CCN(C)CC1,–,inactive: -12.4% [at 46.1 µM]
COc1cc2c3cc1Oc1cc(ccc1O)C[C@@H]1c4c(cc(OC)c(O)c4Oc4ccc(cc4)C[C@H]3N(C)CC2)CCN1C,active: 1.84 µM,–
CCC(C)NC(=O)CSc1nc2ccccc2c(=O)n1Cc1ccc(OC)cc1 (configuration not stated),–,inactive: 14.1%
Cc1ccc(NC(=O)c2ccc(-c3nn(C)c(=O)c4ccccc34)cc2)cc1,–,inactive: -22.9%
Cc1cccc(NS(=O)(=O)c2cc3c4c(c2)CCC(=O)N4CCC3)c1,"inconclusive: 35.5 µM [inhibitor, single point]",–
Cc1occc1C(=O)NCc1ccc(C(=O)O)o1,"inconclusive: 0.73 µM [inhibitor, single point]",–
c1ccc(CN2CCC(N3CCN(Cc4ccc5c(c4)OCO5)CC3)CC2)cc1,"inconclusive: 11.2 µM [inhibitor, partial curve]",–

# 14 neighbouring compounds out of the list so far, for reference:
Compound,Potency,"activity change, negative = inhibition"
Cn1nc(C(=O)Nc2nc3ccccc3[nH]2)c2ccccc2c1=O,–,inactive: -18.7%
CCC(C(=O)Nc1nc(C)c(C(=O)OC)s1)c1ccccc1 (configuration not stated),–,inactive: -10.6% [at 46.1 µM]
O=c1[nH]n(CC2COC3(CCCCC3)O2)c(=O)c2ccccc12 (configuration not stated),–,inactive: 13.4%
CCCNC(=S)Nc1ccc(Cl)cc1Cl,"inconclusive: 0.112 µM [inhibitor, full curve, poor fit]",–
COc1ccc(Nc2cc(C(=O)NCCc3ccc(C)cc3)c3ccccc3n2)c(OC)c1,"inconclusive: 35.5 µM [activator, single point]",–
O=C(NCc1ccccc1F)C1CCC(=O)N(Cc2ccc(Cl)cc2)C1 (configuration not stated),"inconclusive: 0.631 µM [inhibitor, full curve, poor fit]",–
Cc1cc(Cl)ccc1NC(=S)NCCc1ccc(S(N)(=O)=O)cc1,"inconclusive: 11.2 µM [inhibitor, partial curve, poor fit]",–
COc1cccc(C(=O)COc2cccc(NC(=O)c3ccco3)c2)c1,"inconclusive: 0.794 µM [inhibitor, partial curve, poor fit]",–
CCOC(=O)C(Cc1ccccc1)C(=O)Nc1ccc(NC(=O)C(Cc2ccccc2)C(=O)OCC)cc1 (configuration not stated),–,inactive: 13.9%
Clc1cccc(CNCCc2ccc3c(c2)OCO3)c1,"inconclusive: 35.5 µM [inhibitor, single point]",–
O=C(N/N=C/c1ccc(-c2cccc([N+](=O)[O-])c2)o1)c1ccc([N+](=O)[O-])cc1,"inconclusive: 35.5 µM [inhibitor, single point]",–
COC(=O)c1ccc(COc2ccccc2[N+](=O)[O-])o1,–,inactive: 35.3%
S=C(S)OC1CC2CC1C1CCCC21 (configuration not stated),"inactive and inconclusive: 29.1 µM [activator, single point]",–
Cc1ccc(-c2nnc(Nc3ccc(O)cc3)c3ccccc23)cc1S(=O)(=O)N1CCN(C)CC1,–,inactive: -12.4% [at 46.1 µM]
